Source: publication doi:10.1101/2023.07.24.550340
Positions count from the first letter of the chain named. Where two headings read alike, the source gives them in different places. No constants are given. Whether binding was seen depends on the method and setting. In cells and extracts the contact can be indirect. Some entries that bind do so weakly or less than the wild type. For some assays here: Where a sequence is shown, tags or fusion partners need not be part of it.

The chains behind the UniProt entries cited, without tags or fusion partners. Where a name states a change or a piece, a line headed by the entry shows the natural chain unless it says otherwise.
UniProt P19793, whole entry: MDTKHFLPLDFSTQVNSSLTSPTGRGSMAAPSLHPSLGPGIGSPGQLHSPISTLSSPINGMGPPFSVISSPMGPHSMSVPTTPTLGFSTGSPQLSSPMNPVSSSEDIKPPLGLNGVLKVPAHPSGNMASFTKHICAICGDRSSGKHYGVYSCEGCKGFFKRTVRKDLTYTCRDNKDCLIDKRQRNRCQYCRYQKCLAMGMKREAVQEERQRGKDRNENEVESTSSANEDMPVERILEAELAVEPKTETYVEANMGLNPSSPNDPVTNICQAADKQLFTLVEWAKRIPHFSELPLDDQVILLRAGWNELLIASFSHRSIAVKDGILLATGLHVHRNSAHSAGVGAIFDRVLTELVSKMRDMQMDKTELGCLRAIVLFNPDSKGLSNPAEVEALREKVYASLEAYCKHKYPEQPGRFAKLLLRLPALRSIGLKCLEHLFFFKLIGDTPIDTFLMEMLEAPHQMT

Assays:
FLAG-NR2F1 G368D (human) = molecular target: T1, FLAG-NR2F1 G368D (human) (UniProt P10589); test: co-IP
T1 sequence: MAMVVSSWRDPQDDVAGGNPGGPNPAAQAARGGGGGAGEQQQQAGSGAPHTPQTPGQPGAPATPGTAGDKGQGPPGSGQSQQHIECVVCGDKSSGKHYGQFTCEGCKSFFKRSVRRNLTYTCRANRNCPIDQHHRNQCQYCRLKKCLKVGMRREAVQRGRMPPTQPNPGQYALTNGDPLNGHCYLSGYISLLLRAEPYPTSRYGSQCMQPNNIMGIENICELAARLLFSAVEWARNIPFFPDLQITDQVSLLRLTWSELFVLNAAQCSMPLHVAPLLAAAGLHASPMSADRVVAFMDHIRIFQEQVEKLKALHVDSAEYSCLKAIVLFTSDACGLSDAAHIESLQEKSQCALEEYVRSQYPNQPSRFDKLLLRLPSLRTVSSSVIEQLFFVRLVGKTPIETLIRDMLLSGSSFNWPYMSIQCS

[1] = molecular target: T2, FLAG-AzF-NR2F1 L372AzF (human) (UniProt P10589); test: cross-linking
T2 sequence (chain, p-azidophenylalanine (AzF) at position 372): T1 sequence with D368G, L372F

[2] = molecular target: T3, FLAG-Q244AzF-NR2F1 (human) (UniProt P10589); test: cross-linking
T3 sequence (chain, p-azidophenylalanine (AzF) at position 244): T1 sequence with Q244F, D368G

[3] = molecular target: T3, FLAG-Q244AzF-NR2F1 (human); test: cross-linking; remark: listed apart in the source
[4] = molecular target: FLAG-Q244AzF-NR2F1 with the pathogenic mutation E318D (human) (UniProt P10589); test: cross-linking
[5] = molecular target: FLAG-Q244AzF-NR2F1 with the pathogenic mutation G395A (human) (UniProt P10589); test: cross-linking
[6] = molecular target: FLAG-Q244AzF-NR2F1 with the pathogenic mutation L252P (human) (UniProt P10589); test: cross-linking
[7] = molecular target: FLAG-Q244AzF-NR2F1 with the pathogenic mutation L372P (human) (UniProt P10589); test: cross-linking

Substance: Myc-tagged RXRα (Myc-RXRα) (from UniProt P19793 1-462)
- binding (FLAG-NR2F1 G368D (human)): no binding
- binding [1]: binds
- binding [2]: binds
- binding [3]: binds
- binding [4]: binds
- binding [5]: binds
- binding [6]: binds
- binding [7]: binds
